According to the supplement of paper PMC10398353:
Several values for one entry are separate records, joined by “and”; a condition that tells them apart may be missing. Equal entries are not always repeated. Structures can show the parent of a compound that is named as a salt. ± gives the standard deviation of the averaged measurements. Some of the results follow. This is a noisy data set.

tested on: Salmonella enterica serovar Typhimurium ST313 D23580; experiment: normalized bacterial growth (OD600 20 h minus 0 h, interquartile-mean normalized) (fraction of plate interquartile mean); higher = more bacterial growth (less inhibition); settings: LPM (pH 5.8, low phosphate, low Mg2+), concentration: 10 µM, temperature: 37 °C

Structure (SMILES)	normalized bacterial growth
CCN(CC)CCNC(=O)c1ccc(N)cc1 [Procainamide hydrochloride]	1.2
Cc1ccccc1N1CCN(S(=O)(=O)C[C@]23CC[C@H](C[C@@H]2NC(=O)[C@@H](N)CCS(C)(=O)=O)C3(C)C)CC1 ["L-368,899 hydrochloride"]	0.999
O=C(Oc1cc(O)cc2c1C[C@@H](OC(=O)c1cc(O)c(O)c(O)c1)[C@@H](c1cc(O)c(O)c(O)c1)O2)c1cc(O)c(O)c(O)c1	1.04
c1ccc2c(c1)CC(N1CCN(c3cccc4c3OCCO4)CC1)C2	1.15
CC(=O)c1cc2ccccc2oc1=O [3-Acetylcoumarin]	1.35
CCCCCCOc1ccccc1C(N)=O	0.838
O=C(O)C1=C(CSc2nnnn2CS(=O)(=O)O)CS[C@@H]2[C@H](NC(=O)[C@H](O)c3ccccc3)C(=O)N12	1.05
OC[C@H]1O[C@@H](n2cnc3c(N[C@H]4CC5CCC4C5)ncnc32)[C@H](O)[C@@H]1O (some centres not stated)	0.897
c1cc(CN2CCCCC2)cc(OCCCNc2nc3ccccc3s2)c1	0.701
CC(C)CC(NC(=O)[C@H](C)N)C(=O)O (mixture of isomers)	0.943
CC(=O)O[C@]1(C)CC[C@@]23C[C@H]1C(C)(C)[C@@H]2CC[C@H]3C	1.07
CC(=O)Nc1c(I)cc(I)c(C(=O)O)c1I	1.17
CC(=O)Nc1nnc(S(N)(=O)=O)s1 [Acetazolamide]	1.21
COC1=CC(=O)C(O)=C/C1=C\C=C\c1ccccc1	0.652
O=C(O)CCC(C(=O)O)N1C(=O)c2ccccc2C1=O ["L-Glutamic acid, N-phthaloyl-"]	0.84
COc1cc(O)c2c(=O)cc(C)oc2c1CC=C(C)C	0.778
OC[C@@H](O)[C@@H](O[C@@H]1O[C@H](CO)[C@@H](O)[C@H](O)[C@H]1O)[C@H](O)[C@@H](O)CO	1.05
C[N+](C)(C)CC(O)CC(=O)[O-] (configuration not stated)	0.887 and 1.07
NC(N)=N[C@@H](CCC(=O)O)C(=O)O [alpha-Guanidinoglutaric acid]	1.14
CCCCOc1cc(C(=O)OCCN(CC)CC)ccc1N [Benoxinate hydrochloride]	1.01
CCCCC[C@H](O)/C=C/[C@H]1C(=O)C=C[C@@H]1C/C=C\CCCC(=O)O	0.897
C=C1O[C@@](CO)(n2cnc3c(N)ncnc32)[C@H](O)[C@@H]1O	1.21
CC(=O)C1CCC2C3CC=C4CC(OS(=O)(=O)O)CCC4(C)C3CCC12C (configuration not stated)	1.11
O=C1/C(=C/c2ccc(O)c(O)c2)Oc2c1ccc(O[C@@H]1O[C@H](CO)[C@@H](O)[C@H](O)[C@H]1O)c2O	0.693
O=C(/C=C/c1ccc(O)c(O)c1)O[C@H](Cc1ccc(O)c(O)c1)C(=O)O	1.1 ± 0.16
C1CCC(N=C(NC23CC4CC(CC(C4)C2)C3)N2CCOCC2)CC1	0.838

Structure (SMILES)	normalized bacterial growth
NC1CCN(O)C1=O (configuration not stated)	1.12
C[C@H]1CC[C@@]2(OC1)O[C@H]1C[C@H]3[C@@H]4CC[C@@H]5C[C@@H](O)CC[C@]5(C)[C@H]4CC[C@]3(C)[C@H]1[C@@H]2C	1.2
COC(=O)[C@H](Cc1ccccc1)NC(=O)[C@@H](N)CC(=O)O	1.23
C[C@]12CC[C@@H]3c4ccc(O)cc4C[C@@H](CCCCCCCCC[S+]([O-])CCCC(F)(F)C(F)(F)F)[C@H]3[C@@H]1CC[C@@H]2O (some centres not stated) [Fulvestrant]	0.928
O=C(O)[C@@H]1[C@H]2C[C@H]3c4[nH]c5ccccc5c4CCN3C[C@@H]2CC[C@@H]1O [Yohimbinic acid monohydrate]	0.853
COc1cc(CNC(=O)CCCC/C=C/C(C)C)ccc1O	1
COC(=O)c1c(OC)cc2c(c1C)Oc1c(Cl)c(O)c(Cl)c(C)c1C(=O)O2	1.07
CO/N=C(\C(=O)N[C@@H]1C(=O)N2C(C(=O)O)=C(COC(C)=O)CS[C@H]12)c1csc(N)n1 [Cefotaxime sodium]	0.484
CO/N=C(\C(=O)N[C@@H]1C(=O)N2C(C(=O)O)=C(COC(C)=O)CS[C@H]12)c1csc(N)n1	0.214
C=C[C@](C)(O)CC[C@@H]1[C@@]2(C)CCCC(C)(C)[C@@H]2CC[C@@]1(C)O	0.79
CC(C)[C@H](N)C(=O)OCCOCn1cnc2c(=O)nc(N)[nH]c21	1.06
NCCC(=O)N[C@@H](Cc1c[nH]cn1)C(=O)O	0.957
Cn1cc(C(F)(F)F)nc1-c1ccc(OCC(O)CNCCOc2ccc(O)c(C(N)=O)c2)cc1 (configuration not stated)	1.27
CN(C(=O)CN(CCO)CC(=O)N(C)C(C)(C)Cc1ccccc1)C(C)(C)Cc1ccccc1	0.0767
COC(=O)N/N=C/c1c[n+]([O-])c2ccccc2[n+]1[O-]	1.29
CC1(C)O[C@@H]2C[C@H]3[C@@H]4C[C@H](F)C5=CC(=O)C=C[C@]5(C)[C@@]4(F)[C@@H](O)C[C@]3(C)[C@]2(C(=O)CO)O1	1.13
CC(C)=CCc1c2c(c3occ(-c4ccc(O)c(O)c4)c(=O)c3c1O)C=CC(C)(C)O2	1.28
COc1cc(NS(=O)(=O)c2ccc(N)cc2)ncn1	0.934
Cc1cc(C)nc(NS(=O)(=O)c2ccc(N)cc2)n1	1.13
Cc1cc(C)nc(NS(=O)(=O)c2ccc(N)cc2)n1 [Sulfamethazine sodium salt]	1.04
Cc1ccc(OCC(O)C(C)NC(C)C)c2c1CCC2 (configuration not stated) ["ICI 118,551 hydrochloride"]	0.946
NC(C(=O)O)C(O)C(=O)O (racemic) [DL-threo-beta-hydroxyaspartic acid]	1.02
O=C(O)C1=CC(=C(c2ccc(O)c(C(=O)O)c2)c2ccc(O)c(C(=O)O)c2)C=CC1=O [Aurintricarboxylic acid]	1.19
C[C@@H]1C/C=C/C=C/C=C/C=C/[C@H](O[C@@H]2O[C@H](C)[C@@H](O)[C@H](N)[C@@H]2O)C[C@@H]2O[C@](O)(C[C@@H](O)C[C@H]3O[C@@H]3/C=C/C(=O)O1)C[C@H](O)[C@H]2C(=O)O	0.93 and 0.816
CC(C(O)c1ccc(O)cc1)N1CCC(Cc2ccccc2)CC1 (configuration not stated) [Ifenprodil tartrate]	1.04 ± 0.07
O=c1ccn([C@@H]2O[C@H](COP(=O)(O)OP(=O)(O)O)[C@@H](O)[C@H]2O)c(=O)[nH]1 [Uridine 5'-diphosphate sodium]	1.06

In a second layout: results already given
CCCCCCOc1ccccc1C(N)=O
  normalized bacterial growth: 0.838
O=C1/C(=C/c2ccc(O)c(O)c2)Oc2c1ccc(O[C@@H]1O[C@H](CO)[C@@H](O)[C@H](O)[C@H]1O)c2O
  normalized bacterial growth: 0.693
COC(=O)[C@H](Cc1ccccc1)NC(=O)[C@@H](N)CC(=O)O
  normalized bacterial growth: 1.23
C[C@]12CC[C@@H]3c4ccc(O)cc4C[C@@H](CCCCCCCCC[S+]([O-])CCCC(F)(F)C(F)(F)F)[C@H]3[C@@H]1CC[C@@H]2O (some centres not stated) [Fulvestrant]
  normalized bacterial growth: 0.928
